Assay results: patent publication US6153605A, “Arylsecocholadiene derivatives” (priority 1997, dated 2000)

system: normal mouse skin; assay: Activity assay hyperproliferative disorders: epidermal thickening (acanthosis) in hairless mice, oral; type: in vivo, hairless mice (Moro hr/hr); conditions: calcitriol 3 days, test compounds 4 days
Method: Activity Assay Hyperproliferative Disorders
Orally administered vitamin D analogues can lead to epidermal thickening (acanthosis) in hairless mice. […] Compounds of formula I were tested for 4 days at different dosages in order to detect compounds which show this epidermal effect at subtoxic and non-toxic doses (dosage leading to slight or no weight loss). […] The calcitriol data were obtained from animals treated for three days.
Hairless mice (Moro hr/hr) received daily administrations of the test compound in arachis oil by gavage for 4 days, using 2-5 different dosages (3 fold increments; 2 animals per dosage group). The mice were sacrificed at day 5 and skin biopsies were taken, fixed in formalin and treated for histological evaluation. The epidermal thickness was measured at standard magnification using an occular grid. Daily measurements of body weight allows to judge toxicity (calcemic liability) and determine the non-toxic dose level defined as the dose which is tolerated without weight loss.
ED50 : dose (μg/kg) causing halfmaximal epidermal thickening
TI shift: shift in "therapeutic index", is defined as ratio ED50 /HT
for calcitriol divided by the ratio ED50 /HTP for the test compound

Point of comparison: `C=C1/C(=C\C=C2/CCC[C@]3(C)[C@@H]([C@@H](C)C#Cc4cccc(C(C)(C)O)c4)CC[C@@H]23)C[C@@H](O)C[C@@H]1O` [Example 14, (5Z,7E)-(1S,3R,20R)-23-[3-(1-Hydroxy-1-methyl-ethyl)-phenyl)-24-nor-9,10seco-chola-5,7,10(19)-trien-22-yne-1,3-diol], “TI shift (shift in therapeutic index: ratio ED50/HTD for calcitriol divided by that for the test compound)” value 71. Against it:
- CC(C#Cc1ccccc1C(C)(C)O)[C@H]1CC[C@H]2/C(=C/C=C3C[C@@H](O)C[C@H](O)C3)CCC[C@]12C (stereo partly drawn) [Example 6, (7E)-(1R,3R)-23-[2-(1-Hydroxy-1-methyl-ethyl)-phenyl]-19,24-dinor-9,10-seco-chola-5,7-dien-22-yne-1,3-diol] — lower, 8
- C=C1/C(=C\C=C2/CCC[C@]3(C)[C@@H]([C@@H](C)C#Cc4ccccc4C(C)(C)O)CC[C@@H]23)C[C@@H](O)C[C@@H]1O [Example 16, (5Z,7E)-(1S,3R,20R)-23-[2-(1-Hydroxy-1-methyl-ethyl)-phenyl)-24-nor-9,10-seco-chola-5,7,10(19)-trien-22-yne-1,3-diol] — higher, 100
- C=C1/C(=C\C=C2/CCC[C@]3(C)[C@@H]([C@H](C)CCCC(C)(C)O)CC[C@@H]23)C[C@@H](O)C[C@@H]1O [calcitriol, 1,25-dihydroxycholecalciferol, reference compound] — lower, 1
